# Source: the supplement of paper PMC8728848
# This is one part of the list.
# B1: PX14343C-bfa-541-26-541 (Bacteroides fragilis) (protein)
# chain: KAPLDEIADDSFWSDETLVKYYVNDLYSEISVDGLQLQENRSDNSVSAQRDKYRASWFKFNYDMVSASDPQDDDVWEDYYVKVRKCNRFFERIGTSTIEESEKSRLTGEVHFLRAMFYFEMVKRYGGVILLDKVLTMEDNWEIPRSSEKECYDFILEDLKKATEMLPASYGSREKGRATKGAAYALKSRVELYDKRYEDVIKSCAEVYKLGYELVDGTTPEKYRSIWWTTNKDNKEIIFDVQYKSPDVYNNMMVCNMVTYINDKYGDRGWGGLGPTQELIDAFEMADGTPATQYSQAPADQVFDINTCGIYEGREPRFYANIVFHGSQIFFNADKGAVTVDRYLMDTPDKGDGSLTGYNVWKWIDYDNYNYPYAGAGSPDFSTNWIILRYAEIYLNDAEARLETGDVEGARKAVNMIRQRVGLPDLTESDPEKLRELIRKERRIEFAFEEQRFYDVRRWKIGPETQTTLHGVRFVSPTEFKVTKTDIRTWNDRLYLTPVPHDEIVRSSVLKQNLGY
# What was measured:
# Assay in all cases: glycan array binding signal (z-score within array); higher = stronger binding
# Details in all cases: glycan notation: IUPAC condensed, linker removed
# [1] = biological target: Gal3S(b1-4)Glc
# How it was run: (§1)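 The binding signal is a Z-score computed within each array and averaged over linkers. Arrays of the same protein sequence at different concentrations or buffers were also averaged together. Data originate from 3228 arrays in the Consortium for Functional Glycomics database, kept only where the protein sequence was available.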
# [2] = biological target: Gal3S(b1-4)Glc6S
# How it was run: as §1
# [3] = biological target: Gal3S(b1-4)GlcNAc
# How it was run: as §1
# [4] = biological target: Gal3S(b1-4)[Fuc(a1-3)]Glc6S
# How it was run: as §1
# [5] = biological target: Gal3S(b1-4)[Fuc(a1-3)]GlcNAc
# How it was run: as §1
# [6] = biological target: Gal3S(b1-4)[Fuc(a1-3)]GlcNAc6S
# How it was run: as §1
# [7] = biological target: Gal3S4S(b1-4)GlcNAc
# How it was run: as §1
# [8] = biological target: Gal3S6S(b1-4)GlcNAc
# How it was run: as §1
# [9] = biological target: Gal3S6S(b1-4)GlcNAc6S
# How it was run: as §1
# [10] = biological target: Gal4S(b1-4)GlcNAc
# How it was run: as §1
# [11] = biological target: Gal4S6S(b1-4)GlcNAc
# How it was run: as §1
# [12] = biological target: Gal6P(b1-4)GlcNAc
# How it was run: as §1
# [13] = biological target: Gal6S(b1-3)GlcNAc
# How it was run: as §1
# [14] = biological target: Gal6S(b1-3)GlcNAc6S
# How it was run: as §1
# [15] = biological target: Gal6S(b1-4)Glc
# How it was run: as §1
# [16] = biological target: Gal6S(b1-4)Glc6S
# How it was run: as §1
# [17] = biological target: Gal6S(b1-4)GlcNAc
# How it was run: as §1
# [18] = biological target: Gal6S(b1-4)GlcNAc6S
# How it was run: as §1
# [19] = biological target: GalNAc(a1-3)Gal
# How it was run: as §1
# [20] = biological target: GalNAc(a1-3)GalNAc
# How it was run: as §1
# [21] = biological target: GalNAc(a1-3)GalNAc(b1-3)Gal(a1-4)Gal(b1-4)Glc
# How it was run: as §1
# [22] = biological target: GalNAc(a1-3)GalNAc(b1-3)Gal(a1-4)Gal(b1-4)GlcNAc
# How it was run: as §1
# [23] = biological target: GalNAc(b1-3)Gal
# How it was run: as §1
# [24] = biological target: GalNAc(b1-3)Gal(a1-4)Gal(b1-4)GlcNAc
# How it was run: as §1
# [25] = biological target: GalNAc(b1-3)Gal(a1-4)Gal(b1-4)GlcNAc(b1-3)Gal(b1-4)Glc
# How it was run: as §1
# [26] = biological target: GalNAc(b1-3)Gal(a1-6)Gal(b1-4)Glc
# How it was run: as §1
# [27] = biological target: GalNAc(b1-3)GalNAc
# How it was run: as §1
# [28] = biological target: GalNAc(b1-3)GlcNAc
# How it was run: as §1
# [29] = biological target: GalNAc(b1-4)Gal(b1-4)Glc
# How it was run: as §1
# [30] = biological target: GalNAc(b1-4)GlcNAc
# How it was run: as §1
# [31] = biological target: GalNAc(b1-4)GlcNAc(b1-2)Man
# How it was run: as §1
# [32] = biological target: GalNAc(b1-4)GlcNAc(b1-2)Man(a1-3)[GalNAc(b1-4)GlcNAc(b1-2)Man(a1-6)]Man(b1-4)GlcNAc(b1-4)GlcNAc
# How it was run: as §1
# [33] = biological target: GalNAc(b1-4)GlcNAc(b1-3)GalNAc(b1-4)GlcNAc
# How it was run: as §1
# [34] = biological target: GalNAc(b1-4)GlcNAc6S
# How it was run: as §1
# [35] = biological target: GalNAc(b1-6)GalNAc
# How it was run: as §1
# [36] = biological target: GalNAc3S(b1-4)GlcNAc
# How it was run: as §1
# [37] = biological target: GalNAc3S(b1-4)GlcNAc3S
# How it was run: as §1
binder,measurement,setting,value
B1,glycan array binding signal (z-score),[1],-0.539
same,glycan array binding signal (z-score),[2],0.2
same,glycan array binding signal (z-score),[3],-0.427
same,glycan array binding signal (z-score),[4],2.16
same,glycan array binding signal (z-score),[5],-0.026
same,glycan array binding signal (z-score),[6],-0.296
same,glycan array binding signal (z-score),[7],0.497
same,glycan array binding signal (z-score),[8],0
same,glycan array binding signal (z-score),[9],-0.125
same,glycan array binding signal (z-score),[10],-0.84
same,glycan array binding signal (z-score),[11],0.123
same,glycan array binding signal (z-score),[12],-0.386
same,glycan array binding signal (z-score),[13],-0.317
same,glycan array binding signal (z-score),[14],-0.427
same,glycan array binding signal (z-score),[15],-0.235
same,glycan array binding signal (z-score),[16],1.46
same,glycan array binding signal (z-score),[17],-0.41
same,glycan array binding signal (z-score),[18],2.26
same,glycan array binding signal (z-score),[19],0.821
same,glycan array binding signal (z-score),[20],0.247
same,glycan array binding signal (z-score),[21],-0.756
same,glycan array binding signal (z-score),[22],-0.938
same,glycan array binding signal (z-score),[23],-0.663
same,glycan array binding signal (z-score),[24],2.08
same,glycan array binding signal (z-score),[25],-0.667
same,glycan array binding signal (z-score),[26],1.19
same,glycan array binding signal (z-score),[27],-0.204
same,glycan array binding signal (z-score),[28],-0.191
same,glycan array binding signal (z-score),[29],-0.07
same,glycan array binding signal (z-score),[30],-0.418
same,glycan array binding signal (z-score),[31],-0.931
same,glycan array binding signal (z-score),[32],3.4
same,glycan array binding signal (z-score),[33],0.461
same,glycan array binding signal (z-score),[34],-1.13
same,glycan array binding signal (z-score),[35],-0.726
same,glycan array binding signal (z-score),[36],-0.515
same,glycan array binding signal (z-score),[37],-0.887

# 3 entries from above, with tabs.
binder	measurement	setting	value
B1	glycan array binding signal (z-score)	[10]	-0.84
same	glycan array binding signal (z-score)	[11]	0.123
same	glycan array binding signal (z-score)	[12]	-0.386
